Assay results as given in patent US9265735B2, “Methods for screening to identify therapeutic agents for Alzheimer's disease and use thereof” (New York University, priority 2010, dated 2016).
At least one compound was matched to its structure with a doubt left.

Columns and labels:
Assay type in all cases: cell-based, Murine
PS1KO blastocysts = experiment: Lysosomal pH measurement with Dextran conjugated Lysosensor Yellow/Blue in PS1KO cells; settings: for lysosomal pH after treatment relative to WT lysosomal pH (ANOVA, Dunnet's post-test): PS1KO blastocysts, FIG. 11
Description: For results presented in Example 1, quantification of lysosomal pH was determined using Dextran conjugated Lysosensor Yellow/Blue DND-160 (Invitrogen) as follows. Wild Type and PS1KO blastocysts were grown in High Glucose DMEM+15% FBS with antibiotics to ˜90% confluency. Cells were then trypsinized, harvested (1×10^6 cells/ml) and loaded with 1 mg/ml of Lysosensor-dextran for 1 hour at 37° C. with 5% CO2. The cells were then washed 3× in HBSS and aliquoted at […] into a black 96-well microplate. pH calibration was performed according to the protocol established by Diwu et al (Diwu et al., (1999). Chem Biol 6, 411-418). Briefly, wild type and PS1KO blastocysts were treated with 10 μM monensin and 10 uM nigericin in MES buffer (5 mM NaCl, 115 mM KCL, 1.3 mM MgSO4, 25 mM MES), with the pH adjusted to a range from 3.5-7.0. The samples were read in a Wallac Victor 2 fluorimeter (Perkin Elmer) with excitation at 355 nm. The ratio of emission 440/535 nm was then calculated for each sample. The pH values were determined from the linear standard curve generated via the pH calibration samples.
In a more particular embodiment, quantification of lysosomal pH is determined using Dextran conjugated Lysosensor Yellow/Blue (Invitrogen) as follows. 3000 Wild Type and PS1KO blastocysts were seeded in multiple wells of black, clear bottom tissue culture treated 96 well dish and grown in High Glucose DMEM+15% FBS with antibiotics to ˜90% confluency (˜24 hours). 2 ul of 0.5 mg/ml lysosensor-dextran (1:100 dilution of a 5 mg/ml stock) was added and incubated for 1 hour at 37° C. with 5% CO2. The cells were then washed 3× in HBSS. See also methods and results set forth herein below in Example 2. […]
Quantification of lysosomal pH was determined using Dextran conjugated Lysosensor Yellow/Blue (Invitrogen). […]
The samples were read in a Wallac Victor 2 fluorimeter (Perkin Elmer) with excitation at 355 nm. The ratio of emission 440 nm/535 nm was then calculated for each sample. pH values were determined from the linear std curve generated via the pH calibration samples.

Cat B = Cat B activity by MagicRed-Cathepsin B (MR-Cat B) in PS1KO cells
Description: Immunocytochemistry was performed as previously described (Yu et al., 2005). Secondary antibodies used were from Invitrogen: goat anti-mouse/rabbit/rat Alexa Fluor 488 and goat anti-mouse/rabbit/rat Alexa Fluor 568. Cells were imaged using a plan-Apochromat 40× or 100×/1.4 oil DIC objective lens on the laser scanning confocal microscope, LSM 510 META, with LSM software v3.5 (Carl Zeiss MicroImaging Inc). Images were analysed using ImageJ program (NIH). Organelles with low internal pH were labeled by LysoTracker DND-99 dye (Invitrogen) at the final 100 nM for 30 min. Following 4% PFA fixation, cells were further counter stained with Cat D, LMAP1, or LC3 antibody for 4 hrs then visualized with Alexa Fluor 488 conjugated secondary antibody. Active Cat D was labeled by adding Bodipy-FL-pepstatin A directly to the medium at a final concentration of 1 μg/ml for 1 hr. Following 4% PFA fixation, cells were counter stained with Cat D antibody for 4 hrs and visualized with Alexa Fluor 568 conjugated secondary antibody. […] Cells were incubated for 30 min with MR-Cathepsin B prior to mounting them under the confocal microscope. […]
Active Cat D was labeled by adding Bodipy-FL-pepstatin A directly to the medium at a final concentration of 1 mg/ml for 1 hr. […] Cat B staining with MagicRed-Cathepsin B was also measured fluorometrically with a Wallac Victor 2 fluorometer.

LC3-II = LC3-II levels by immunoblot / LC3 puncta in WT and PS1 KO cells; settings: rapamycin acute induction, leupeptin 0.3 mM, 6 hrs
Description: Immunoblotting was performed as previously described (Yu et al., 2005). Briefly, cells used for Western blot analysis were lysed in buffer containing 50 mM Tris (pH=7.4), 150 mM NaCl, 1 mM EDTA, 1 mM EGTA, 1% Triton X-100 and 0.5% Tween-20 with protease and phosphatase inhibitors. Following electrophoresis on 4-20% gradient gel (Invitrogen), proteins were transferred onto 0.45 μm PVDF membranes (Millipore) and the membrane was incubated overnight in primary antibody then incubated with HRP conjugated secondary antibody. The blot was developed by ECL-kit (GE Healthcare). To assess v-ATPase V0a subunit glycosylation, lysate from WT and PS1KO cells were either treated for 24 hrs at 37° C. with PNGase F or O-glycanase using an enzymatic deglycosylation kit according to the manufacturer's instructions (PROzyme) or with Endo H (New England Biolabs) for 24 hrs at 37° C. Total glycoproteins were isolated using Glycoprotein Isolation Kit, ConA according to the manufacturer's instructions (Thermo Scientific).
Immunocytochemistry was performed as previously described (Yu et al., 2005). Secondary antibodies used were from Invitrogen: goat anti-mouse/rabbit/rat Alexa Fluor 488 and goat anti-mouse/rabbit/rat Alexa Fluor 568. […] Images were analysed using ImageJ program (NIH). […]

SMILES: C=C[C@@]1(C)CC(=O)[C@]2(O)[C@@]3(C)[C@@H](O)CCC(C)(C)[C@@H]3[C@H](O)[C@H](OC(C)=O)[C@@]2(C)O1 [forskolin]
- lysosomal pH after treatment relative to WT lysosomal pH (ANOVA, Dunnet's post-test) (PS1KO blastocysts): did not differ significantly from that of WT lysosomal pH
- lysosomal pH after treatment relative to WT lysosomal pH (ANOVA, Dunnet's post-test) (PS1KO blastocysts; listed as Forskolin): did not possess significant difference from WT lysosomal pH
- effect on elevated lysosomal pH in PS1KO cells (PS1KO blastocysts; PS1KO cells, FIG. 10A/G): decreased lysosomal pH

SMILES: COC(=O)C1=C(C)NC(C)=C(C(=O)OCCN(C)Cc2ccccc2)C1c1cccc([N+](=O)[O-])c1 (centres unmarked) [nicardipine]
- active Cat B in PS1 KO cells (Cat B): partially restoring active Cat B

SMILES: CO[C@H]1C[C@@H]2CC[C@@H](C)[C@@](O)(O2)C(=O)C(=O)N2CCCC[C@H]2C(=O)O[C@H]([C@H](C)C[C@@H]2CC[C@@H](O)[C@H](OC)C2)CC(=O)[C@H](C)/C=C(\C)[C@@H](O)[C@@H](OC)C(=O)[C@H](C)C[C@H](C)/C=C/C=C/C=C/1C [rapamycin]
- LC3-II levels in WT cells (LC3-II): elevated LC3-II levels
